From PubChem BioAssay AID493014 (National Center for Advancing Translational Sciences (NCATS), 2011)
The list shows a part of the results. The main result of the screen is listed elsewhere. These columns were measured beside it and carry no call. Most of these compounds were active or inconclusive in the main read-out, so they are no random draw. The note in brackets gives the kind of curve behind each potency; many fits are weak.

Assay: qHTS Assay to Find Inhibitors of Chronic Active B-Cell Receptor Signaling
Conditions: ABC-DLBCL IkBa-CBG/CBR reporter, luminescence ratio (green luciferase fused to IkBa over red control in TMD8 lymphoma cells), 4 h
Summary of the method: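 Compounds up to 46 uM were incubated four hours with TMD8 cells whose green CBG68 luciferase is fused to IkappaBalpha; red CBR luminescence normalised the signal, and concentration-effect curves were fitted to fusion, red and ratio data.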

[1] = measured here: CBR red luminescence, cell number

Compound | AC50 [1] | AC50 (measured here: IkBa-CBG green luminescence)
O=C(c1ccccc1)n1c(=S)nc2ccccn21 | 2.51 µM [falling, full curve, poor fit] | –
CC1CC(C)CN(C(=O)C(NS(=O)(=O)c2ccc(Br)s2)c2ccccc2)C1 (stereo not drawn) | 8.2 µM [falling, partial curve] | –
Cc1cc(NC(=O)c2cccs2)ncc1NC(=O)C(C)C | 22.4 µM [falling, single point] | –
O=C(CSc1ccc(Br)cc1)Nc1ccccc1N1CCOCC1 | 20 µM [falling, single point] | –
CN(/C=C/C(=O)C(F)(F)C(F)(F)F)Cc1ccccc1 | 23.1 µM [rising, single point] | –
Cc1c(C(=O)N2CCCCC2)nnn1-c1nonc1N | 2.31 µM [rising, partial curve, poor fit] | –
COc1ccc(S(=O)(=O)Nc2ccc3c(c2)C(=O)N([C@H](C)CO)C[C@H](C)[C@@H](CN(C)C(=O)NC2CCCCC2)O3)cc1 | 2.06 µM [rising, partial curve, poor fit] | –
Cc1ccccc1N=CC=C1OC(C)(C)C(C)(C)O1 | 29.1 µM [falling, single point] | –
CSc1nc2c(cnn2-c2ccccc2)c(=O)n1N | 11.2 µM [falling, partial curve, poor fit] | –
COc1ccc(/C=N/NC(=O)CN(C)C(=O)OCc2ccccc2)cc1OC | 15.8 µM [rising, partial curve, poor fit] | –
COc1cc(S(=O)(=O)N2CCCCC2)ccc1NC(=O)/C=C/c1ccccc1 | 18.4 µM [rising, partial curve] | 9.2 µM [falling, partial curve]
Cc1cccc(/C(N)=N/OC(=O)c2ccc(Br)o2)c1 | 2.06 µM [rising, partial curve, poor fit] | –
N#CC(/C(=N/S(=O)(=O)c1cccs1)c1ccccc1)c1nc2ccccc2[nH]1 (stereo not drawn) | 2.91 µM [rising, full curve, poor fit] | –
Cc1cc(C)cc(NC(=O)N2CCCC2C(=O)NCc2ccco2)c1 (stereo not drawn) | 1.41 µM [falling, full curve, poor fit] | –
FC(F)(F)c1nc2ccccc2nc1N/N=C/c1c(Cl)cccc1Cl | 32.6 µM [falling, partial curve, poor fit] | –
O=S(=O)(c1ccccc1)N1CCN=C1SCc1ccccc1Cl | 5.01 µM [rising, partial curve, poor fit] | –
CC(=O)Nc1ccc(S(=O)(=O)N(C)CC(=O)NC2CCCC(C)C2C)cc1 (stereo not drawn) | 11.6 µM [rising, partial curve] | –

Two compounds picked at random from the list so far:
Compound | AC50 [1] | AC50 (measured here: IkBa-CBG green luminescence)
FC(F)(F)c1nc2ccccc2nc1N/N=C/c1c(Cl)cccc1Cl | 32.6 µM [falling, partial curve, poor fit] | –
N#CC(/C(=N/S(=O)(=O)c1cccs1)c1ccccc1)c1nc2ccccc2[nH]1 (stereo not drawn) | 2.91 µM [rising, full curve, poor fit] | –
